Results are given in words; binding and its absence hold for the method and conditions named. Binding seen in cells or lysates may run through a third protein. These calls come from enrichment with a bait or labelling near it, and not all partners need be listed.

Chains of the proteins cited; added tags and fusions are not shown.
UniProt P22700: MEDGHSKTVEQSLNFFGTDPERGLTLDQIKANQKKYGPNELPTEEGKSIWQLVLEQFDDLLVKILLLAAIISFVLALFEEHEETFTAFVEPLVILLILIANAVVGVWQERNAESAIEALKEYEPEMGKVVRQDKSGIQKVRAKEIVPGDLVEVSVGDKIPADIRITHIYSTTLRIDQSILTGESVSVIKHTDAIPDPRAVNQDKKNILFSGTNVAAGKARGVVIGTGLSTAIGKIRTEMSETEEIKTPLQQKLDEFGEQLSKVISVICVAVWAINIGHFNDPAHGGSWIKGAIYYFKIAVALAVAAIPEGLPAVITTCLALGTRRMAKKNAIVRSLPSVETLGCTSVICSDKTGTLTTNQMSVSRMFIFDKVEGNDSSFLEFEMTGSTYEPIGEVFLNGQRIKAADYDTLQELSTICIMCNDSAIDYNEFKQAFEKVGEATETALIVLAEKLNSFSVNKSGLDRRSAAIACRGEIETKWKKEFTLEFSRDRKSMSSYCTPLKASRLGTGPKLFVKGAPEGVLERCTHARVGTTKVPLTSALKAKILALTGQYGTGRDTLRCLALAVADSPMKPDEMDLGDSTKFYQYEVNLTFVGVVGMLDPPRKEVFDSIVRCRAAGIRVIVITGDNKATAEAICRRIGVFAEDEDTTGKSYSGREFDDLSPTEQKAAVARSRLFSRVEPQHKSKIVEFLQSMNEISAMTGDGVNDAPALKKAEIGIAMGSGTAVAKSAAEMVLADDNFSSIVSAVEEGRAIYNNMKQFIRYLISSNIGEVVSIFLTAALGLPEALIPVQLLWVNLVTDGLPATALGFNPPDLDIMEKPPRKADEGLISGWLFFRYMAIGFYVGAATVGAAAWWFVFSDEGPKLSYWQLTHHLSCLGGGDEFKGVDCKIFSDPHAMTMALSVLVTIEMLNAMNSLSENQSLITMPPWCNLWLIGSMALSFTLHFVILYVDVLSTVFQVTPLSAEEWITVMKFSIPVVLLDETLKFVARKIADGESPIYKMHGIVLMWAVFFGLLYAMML

In this assay the target is T1, Dmel\Tmem43wt::TurboID (Drosophila) (UniProt Q9VSB9).
T1 sequence: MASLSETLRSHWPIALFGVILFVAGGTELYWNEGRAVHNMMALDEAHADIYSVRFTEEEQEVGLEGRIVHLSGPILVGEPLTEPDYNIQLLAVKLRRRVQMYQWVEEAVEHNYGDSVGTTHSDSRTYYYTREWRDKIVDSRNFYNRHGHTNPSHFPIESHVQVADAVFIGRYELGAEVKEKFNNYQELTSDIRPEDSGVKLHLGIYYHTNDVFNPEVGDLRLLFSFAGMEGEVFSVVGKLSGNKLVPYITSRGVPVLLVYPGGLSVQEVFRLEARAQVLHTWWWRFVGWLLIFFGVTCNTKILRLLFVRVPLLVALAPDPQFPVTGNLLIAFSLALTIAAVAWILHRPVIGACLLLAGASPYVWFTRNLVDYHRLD
As to the kind of experiment: proximity labelling; TurboID fusions expressed in muscle of third-instar larvae (mef2-Gal4); biotinylated proteins purified on streptavidin microbeads and identified by mass spectrometry.

As to HRP49, the binding entry is “binds”. Then SERCA (from UniProt P22700 1-1020), with “binds”.

Values taken from publication PMC12618784.
